We go through one substance from patent US20220118080A1 (MAYO FOUNDATION FOR MEDICAL EDUCATION AND RESEARCH, published 2022).

The chains behind the UniProt entries cited, without tags or fusion partners. Where a name states a change or a piece, a line headed by the entry shows the natural chain unless it says otherwise. Residues count along the entry.
UniProt P08362: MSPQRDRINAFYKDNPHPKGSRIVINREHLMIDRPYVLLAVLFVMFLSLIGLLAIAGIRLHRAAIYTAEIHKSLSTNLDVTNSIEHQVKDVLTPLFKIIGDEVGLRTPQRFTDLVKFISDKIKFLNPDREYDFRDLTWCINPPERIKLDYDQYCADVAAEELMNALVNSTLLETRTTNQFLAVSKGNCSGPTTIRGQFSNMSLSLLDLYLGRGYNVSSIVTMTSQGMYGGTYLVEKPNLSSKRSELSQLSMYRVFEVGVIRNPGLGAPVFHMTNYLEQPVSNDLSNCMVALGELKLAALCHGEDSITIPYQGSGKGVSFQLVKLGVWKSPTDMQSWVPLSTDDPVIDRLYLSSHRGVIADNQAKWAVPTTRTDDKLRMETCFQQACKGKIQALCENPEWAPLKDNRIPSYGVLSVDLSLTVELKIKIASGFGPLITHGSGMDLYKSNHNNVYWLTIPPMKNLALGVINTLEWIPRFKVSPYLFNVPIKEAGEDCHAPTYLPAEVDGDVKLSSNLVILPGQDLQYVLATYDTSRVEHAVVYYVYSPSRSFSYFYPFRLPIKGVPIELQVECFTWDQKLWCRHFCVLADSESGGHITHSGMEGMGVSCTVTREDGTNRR
UniProt P15529, residues 35-328: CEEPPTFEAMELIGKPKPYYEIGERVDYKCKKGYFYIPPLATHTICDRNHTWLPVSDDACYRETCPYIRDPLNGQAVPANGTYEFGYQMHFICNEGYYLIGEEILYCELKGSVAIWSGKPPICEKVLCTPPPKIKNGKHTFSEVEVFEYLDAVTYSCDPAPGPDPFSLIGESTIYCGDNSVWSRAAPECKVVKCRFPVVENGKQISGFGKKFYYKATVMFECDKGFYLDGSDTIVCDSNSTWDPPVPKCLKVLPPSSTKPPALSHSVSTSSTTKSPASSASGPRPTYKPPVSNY

For this assay, the target named is recombinant soluble MeV-H H1 (measles virus) (UniProt P08362). The assay is described as follows: ELISA, receptor-Fc titrated on plastic-bound MeV-H. On the technique in general: In an ELISA, binding on a coated surface is turned into a signal by an enzyme label.

These are yes or no findings as the source states them, for the method shown. Some results given as binding are weak or reduced against the parent protein; the word gives no strength.

As to “CD46-Fc (from UniProt P15529 35-328) (Fc fusion)”, the binding result is “binds”.
